Reference: patent US10570431B2, “Compositions comprising a polypeptide having cellulolytic enhancing activity and a heterocyclic compound and uses thereof” (priority 2013, dated 2020)
For at least one compound, name, drawing or mass did not settle the structure.

Test system: Trichoderma reesei cellulase composition
Assay: Hydrolysis of AVICEL (microcrystalline cellulose) by the T. reesei cellulase composition, with/without GH61 polypeptide or heterocyclic compound
Format: biochemical
Conditions: compound 1 mM, 1, 3 and 7 days

c1ccc2c(c1)CCO2 [dihydrobenzofuran]
heterocyclic compound effect(no GH61): slightly increased
